Experimental data taken from the supplement of paper PMC12889115.
This is one part of the list. Values are raw readings; no control value is given beside them.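 Primary screen: polymyxin B was added at a level permeabilizing Salmonella outer membranes while sparing inner membranes. DMSO wells, both with and without polymyxin B, established maximum growth. Plate-to-plate variation meant each plate was ranked on its own, and the lowest-OD600 compounds were selected as hits.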

Test system: Salmonella enterica serovar Typhimurium SL1344
Test: bacterial growth OD600 after 18 h with compound and polymyxin B; higher = more bacterial growth (less inhibition)
Conditions: 50 µM, Mueller-Hinton broth

Row | SMILES | bacterial growth OD600 (polymyxin B 1 µg/mL) | bacterial growth OD600 (polymyxin B 0.75 µg/mL)
1 | CC(C)c1noc(-c2ccc(N3CCSCC3)nc2)n1 | 1.25 | 
2 | CCN(CC)C1CCN(c2nc3nonc3nc2N2CCOCC2)C1 (stereo not given) |  | 0.655
3 | CCN1CCCC1CNC1CCN(c2ccc(NC(=O)c3cccc(Cl)c3)cc2)CC1 (stereo not given) |  | 0.829
4 | COCc1nc2cc(C(F)(F)F)ccc2n1C1CCN(C(=O)Cc2csc(-c3ccccc3)n2)CC1 |  | 0.005
5 | Cc1cc(C)n(-c2cccc(CN(C)C(=O)Cn3nnnc3CN3CCOCC3)c2)n1 |  | 0.806
6 | COCC1CCCN(C(=O)CCc2nnc(Cc3ccc(-c4ccccc4)cc3)o2)C1 (stereo not given) | 1.14 | 
7 | Cc1c(CNC2CCCc3nc(N4CCC(CO)CC4)ncc32)cnn1C (stereo not given) |  | 0.814
8 | COc1ccc(-n2ncc3c2CC(C)(C)CC3NC2CCOCC2)cc1 (stereo not given) | 1 | 
9 | CCN(Cc1cnn(CC)c1)CC1CCCN(CCc2cccc(OC)c2)C1 (stereo not given) |  | 0.854
10 | Cc1cccc(CN2CCCC(O)(CNCc3nc(C)cc(C)n3)C2=O)c1 (stereo not given) |  | 0.831
11 | O=C(CSc1ccccn1)NCCN1Cc2ccccc2OC(c2ccccc2F)C1 (stereo not given) |  | 0.044
12 | CN(CC1Cc2ccccc2O1)C(=O)CCC1(Cc2cccs2)CCC(=O)N1 (stereo not given) |  | 0.871
13 | CN(C)c1ncc2c(n1)CCCC2NC1CCC1 (stereo not given) | 0.902 | 
14 | Cc1ccc(SC2CCN(C(=O)C3CCC(=O)N(CCN4CCOCC4)C3)CC2)cc1 (stereo not given) | 1.08 | 
15 | COc1cccc(-c2ccc(NC(=O)C3CCCN(C(=O)c4cnsn4)C3)cc2)c1 (stereo not given) | 0.02 | 
16 | COc1ccc(CCNC2CCN(c3ccc(C(=O)N[C@H]4CCCCNC4=O)cc3)CC2)cc1 |  | 0.729
17 | O=C(c1cccc(Cl)c1)N1CCCC(Nc2ccc(F)cc2)C1 (stereo not given) | 1.07 | 
18 | COC(=O)c1cccc(C(=O)N(C)CC2CCN(CCc3ccc(F)cc3)CC2)c1 | 1.14 | 
19 | Cc1nc2ccccc2n1Cc1cc(C(=O)N(Cc2cnn(C)c2)C(C)C)n[nH]1 | 0.949 | 
20 | Cc1cc(C)n(CC(C)NC(=O)c2coc(Cn3cnc4ccccc43)n2)n1 (stereo not given) | 0.822 | 

As entered above:
Cc1cccc(CN2CCCC(O)(CNCc3nc(C)cc(C)n3)C2=O)c1 (stereo not given) – bacterial growth OD600 (polymyxin B 0.75 µg/mL): 0.831
Cc1ccc(SC2CCN(C(=O)C3CCC(=O)N(CCN4CCOCC4)C3)CC2)cc1 (stereo not given) – bacterial growth OD600 (polymyxin B 1 µg/mL): 1.08
